No constants are given. Whether binding was seen depends on the method and setting. In cells and extracts the contact can be indirect. Here binding means that the protein was enriched with, or labelled near, the bait; the list need not be complete. Sequences can lack the tags named with a protein.
Target: T1, Flotillin-1 (FLOT1), HA-tagged (UniProt O75955)
T1 sequence: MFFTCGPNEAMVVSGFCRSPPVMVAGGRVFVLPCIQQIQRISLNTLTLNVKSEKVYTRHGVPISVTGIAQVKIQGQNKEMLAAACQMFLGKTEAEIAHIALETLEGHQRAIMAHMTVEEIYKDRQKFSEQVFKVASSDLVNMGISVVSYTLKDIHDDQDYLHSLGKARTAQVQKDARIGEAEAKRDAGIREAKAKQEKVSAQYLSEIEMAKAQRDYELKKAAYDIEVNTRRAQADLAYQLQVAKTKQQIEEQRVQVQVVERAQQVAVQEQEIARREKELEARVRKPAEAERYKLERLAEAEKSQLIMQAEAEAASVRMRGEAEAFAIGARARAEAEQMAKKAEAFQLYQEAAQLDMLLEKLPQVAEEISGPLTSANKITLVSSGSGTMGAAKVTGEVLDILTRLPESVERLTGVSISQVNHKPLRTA
Test: affinity purification with mass spectrometry; AGS cells transfected with HA-FLOT1, collected after 72 h; immunoprecipitation with anti-HA antibody; complex sent to proteomic analysis

B1: Breast Cancer Antiestrogen Resistance 1 (BCAR1), in AGS cells (protein, UniProt P56945 1-870)
chain: MNHLNVLAKALYDNVAESPDELSFRKGDIMTVLEQDTQGLDGWWLCSLHGRQGIVPGNRLKILVGMYDKKPAGPGPGPPATPAQPQPGLHAPAPPASQYTPMLPNTYQPQPDSVYLVPTPSKAQQGLYQVPGPSPQFQSPPAKQTSTFSKQTPHHPFPSPATDLYQVPPGPGGPAQDIYQVPPSAGMGHDIYQVPPSMDTRSWEGTKPPAKVVVPTRVGQGYVYEAAQPEQDEYDIPRHLLAPGPQDIYDVPPVRGLLPSQYGQEVYDTPPMAVKGPNGRDPLLEVYDVPPSVEKGLPPSNHHAVYDVPPSVSKDVPDGPLLREETYDVPPAFAKAKPFDPARTPLVLAAPPPDSPPAEDVYDVPPPAPDLYDVPPGLRRPGPGTLYDVPRERVLPPEVADGGVVDSGVYAVPPPAEREAPAEGKRLSASSTGSTRSSQSASSLEVAGPGREPLELEVAVEALARLQQGVSATVAHLLDLAGSAGATGSWRSPSEPQEPLVQDLQAAVAAVQSAVHELLEFARSAVGNAAHTSDRALHAKLSRQLQKMEDVHQTLVAHGQALDAGRGGSGATLEDLDRLVACSRAVPEDAKQLASFLHGNASLLFRRTKATAPGPEGGGTLHPNPTDKTSSIQSRPLPSPPKFTSQDSPDGQYENSEGGWMEDYDYVHLQGKEEFEKTQKELLEKGSITRQGKSQLELQQLKQFERLEQEVSRPIDHDLANWTPAQPLAPGRTGGLGPSDRQLLLFYLEQCEANLTTLTNAVDAFFTAVATNQPPKIFVAHSKFVILSAHKLVFIGDTLSRQAKAADVRSQVTHYSNLLCDLLRGIVATTKAAALQYPSPSAAQDMVERVKELGHSTQQFRRVLGQLAAA
  binding: binds

— article PMC10620819
